The results in this text go back to paper PMC7364212.

Amino acid sequences for entries named in this document (tags omitted).
UniProt P36813: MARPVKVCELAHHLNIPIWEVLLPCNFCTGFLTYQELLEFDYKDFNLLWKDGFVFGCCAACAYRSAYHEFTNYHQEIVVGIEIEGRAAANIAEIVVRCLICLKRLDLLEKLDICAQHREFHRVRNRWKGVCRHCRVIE
UniProt P03126: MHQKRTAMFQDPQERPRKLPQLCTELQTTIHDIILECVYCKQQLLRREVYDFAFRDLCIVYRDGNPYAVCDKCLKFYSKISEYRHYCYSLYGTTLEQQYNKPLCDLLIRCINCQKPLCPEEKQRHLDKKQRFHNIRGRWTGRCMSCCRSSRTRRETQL
UniProt Q92585: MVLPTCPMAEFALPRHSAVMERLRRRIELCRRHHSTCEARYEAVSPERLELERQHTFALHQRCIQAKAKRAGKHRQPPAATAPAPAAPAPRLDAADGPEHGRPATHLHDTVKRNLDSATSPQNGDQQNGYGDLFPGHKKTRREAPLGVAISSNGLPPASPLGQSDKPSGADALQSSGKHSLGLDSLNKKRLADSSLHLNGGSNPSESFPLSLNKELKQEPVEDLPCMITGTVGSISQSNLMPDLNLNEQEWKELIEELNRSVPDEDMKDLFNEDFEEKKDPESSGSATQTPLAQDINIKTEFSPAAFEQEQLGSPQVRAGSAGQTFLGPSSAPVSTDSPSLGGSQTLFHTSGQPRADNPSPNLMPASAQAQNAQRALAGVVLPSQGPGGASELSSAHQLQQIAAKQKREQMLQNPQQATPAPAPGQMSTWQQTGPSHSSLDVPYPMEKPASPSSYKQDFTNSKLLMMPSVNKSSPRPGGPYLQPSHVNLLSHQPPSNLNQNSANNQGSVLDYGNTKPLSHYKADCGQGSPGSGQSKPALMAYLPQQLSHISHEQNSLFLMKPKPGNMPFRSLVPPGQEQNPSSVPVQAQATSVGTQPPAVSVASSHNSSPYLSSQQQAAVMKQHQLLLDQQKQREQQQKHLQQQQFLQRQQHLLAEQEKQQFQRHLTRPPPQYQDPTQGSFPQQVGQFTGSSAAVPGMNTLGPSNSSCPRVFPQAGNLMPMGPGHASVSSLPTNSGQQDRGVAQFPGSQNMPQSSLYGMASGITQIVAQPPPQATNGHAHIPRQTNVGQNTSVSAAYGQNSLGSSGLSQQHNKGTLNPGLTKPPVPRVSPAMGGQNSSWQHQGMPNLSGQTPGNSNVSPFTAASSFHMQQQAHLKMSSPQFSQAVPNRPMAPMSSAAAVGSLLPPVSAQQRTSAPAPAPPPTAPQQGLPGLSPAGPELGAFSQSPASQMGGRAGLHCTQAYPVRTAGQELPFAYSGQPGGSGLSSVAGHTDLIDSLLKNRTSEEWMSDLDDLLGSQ

Test [1] has as its target GST/E6 fusion protein of beta-3 HPV49 (human papillomavirus type 49 (HPV49)) (UniProt P36813). The experiment in a line: pull-down; only the target purified.
The target of test [2] is GST/E6 fusion protein of mucosal high-risk HPV16 (human papillomavirus type 16 (HPV16)) (UniProt P03126). The experiment in a line: pull-down; only the target purified.

These are yes or no findings as the source states them, for the method shown. Binding seen in cells or lysates may run through a third protein. Some results given as binding are weak or reduced against the parent protein; the word gives no strength.

As to “Mastermind-like 1 (MAML1) (from UniProt Q92585 1-1016)”, the binding entry is listed as “binds” in test [1] and “no binding” in test [2].
